Some of these results come from one statement about several compounds together.
Experiments:
[1] = tested on: Phytophthora infestans; format: in vivo; settings: tomato plants sprayed with 250 ppm active compound, inoculated next day, assessed after 6 days; untreated plants 90% infected
[2] = tested on: Phakopsora pachyrhizi; assay: Greenhouse: protective control of rust on soybeans caused by Phakopsora pachyrhizi; format: in vivo; settings: soybean seedlings sprayed with 250 ppm active compound, inoculated next day, assessed after 14 days; untreated plants 90% infected

SMILES | infection (extent of fungal attack on the leaves, % diseased leaf area) [1] | infection (extent of fungal attack on the leaves, % diseased leaf area) [2]
Cc1cc(OC2CCCC2)ccc1S(=O)(=O)NCc1ccnc(C)c1C [Example 5] | less than or equal to 15% | 
Cc1nccc(CNS(=O)(=O)c2ccc(C3CCCCC3)cc2)c1C [Example 3, 4-cyclohexyl-N-(2,3-dimethyl-pyridin-4-ylmethyl)-benzene-sulfonamide] |  | less than or equal to 15%
Cc1cc(OC2CCCC2)ccc1S(=O)(=O)NCc1ccnc(C)c1C [Example 2] |  | less than or equal to 15%
COc1cc(CNS(=O)(=O)c2ccc(OC3CCCC3)cc2C)ccn1 [Example 1] | less than or equal to 15% | 
